The nature of this assay: qHTS Assay for Lipid Storage Modulators in Drosophila S3 Cells.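 On cell number change: cells counted by Cell Tracker Red CMTPX staining in the red channel.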 The note with it: BODIPY lipid droplet fluorescence, 18-24 h; for cell number change: measured here: cell count max response, cells fed with added oleic acid. The gist of the method: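 Drosophila S3 cells loaded with oleic acid (400 uM, as added) and compounds at several concentrations; lipid droplets imaged by 488-nm laser-scanning cytometry, 500–530 nm intensity and object ratio to cell channel. Percent activity normalized to 20 uM Triacsin C.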
A general note: In qHTS, concentration-response curves come from the screen itself.

[1] abbreviates: measured here: lipid fluorescence (Fed channel) AC50, cells fed with added oleic acid.
The mark [2] stands for this setting: measured here: cell number channel AC50, cells fed with added oleic acid.

This is one part of the list. Further columns of the screen follow, without active or inactive calls. Compounds called inactive in the main read-out are mostly missing here. The note in brackets gives the kind of curve behind each potency; many fits are weak.

What is called AC50 is the midpoint of the concentration-response curve, whichever way the signal moves. A high value points to weaker potency. Take `O=C1NC(C(=O)O)=CC(c2ccc([N+](=O)[O-])cc2)N1` (configuration not stated): the cell number change is -25.4%. Further, the AC50 under setting [1] is 14.6 µM [falling, partial curve].
Turning to `COc1ccc(OCC(=O)Nc2ccc3c(c2)C(=O)NC3=O)cc1`, the cell number change stood at 14.6%.
As to `CCN(CC)Cc1oc(-c2ccccc2)cc1C(=O)O`, the cell number change was -27.3%. Also, the AC50 under setting [2] is 14.6 µM [falling, partial curve]. Besides, the AC50 under setting [1] was 29.1 µM [falling, single point].
With `CN(CC(=O)N1CCN(c2ccccn2)CC1)S(=O)(=O)c1cccc2nsnc12`, the cell number change worked out at 32.5%. Also, the AC50 under setting [2] was 0.082 µM [rising, full curve, poor fit]. Further, the AC50 under setting [1] is 13 µM [rising, partial curve].
On to `COc1cc(OC)c(-c2sc(Nc3ccccc3)n[n+]2-c2ccc(F)cc2)cc1OC`, for which the cell number change was found to be 30.5%. Also, under setting [2], the AC50 was 29.1 µM [rising, single point]. Under setting [1], the AC50 is 6.51 µM [rising, partial curve, poor fit].
Turning to `COc1ccc(CC(=O)N2CCN(S(=O)(=O)c3cccs3)CC2)cc1OC`, the cell number change is -34.2%. Besides, the AC50 under setting [1] was 29.1 µM [falling, single point].
For `COn1c(-c2ccccc2)c(C=O)c2ccccc21`, the cell number change came to 15.7%. Moreover, the AC50 under setting [1] is 10.3 µM [rising, partial curve].
`O=C(Cn1c(=O)n2ncnc2c2c3c(sc21)CCCC3)c1ccccc1`: the AC50 under setting [1] was 0.517 µM [rising, full curve].
`CC1CCCCC1NC(=O)CCc1nc2sc3c(c2c(=O)[nH]1)CCCC3` (configuration not stated): the cell number change was determined as 27.5%.
Consider `CC1(C)Cc2cccc(OCC(=O)NCCc3ccccc3)c2O1`, for which the cell number change was -15.2%. Further, under setting [1], the AC50 is 6.51 µM [rising, single point].
In the case of `CC1CCN(CC(O)COC2CC(C)CCC2C(C)C)CC1` (configuration not stated), the cell number change was -4.78%.
On to `COC(=O)c1ccc(OCCN2CCCCCC2)cc1`, for which the cell number change is -19.9%. In addition, under setting [1], the AC50 was 14.6 µM [falling, partial curve].
`Cn1c(SCc2ccc(F)cc2)nnc1-c1cccs1`: the cell number change turned out to be 1.59%. Further, under setting [1], the AC50 is 0.00461 µM [falling, full curve, poor fit].
For the compound `O=C(O)c1cc2nc(C3CC3)cc(C(F)(F)F)n2n1`, the cell number change was found to be 54.5%. The AC50 under setting [2] was 6.51 µM [rising, partial curve, poor fit]. Also, the AC50 under setting [1] was 18.4 µM [rising, partial curve].
In the case of `O=C1CCCC(O)=C1C1C2=C(CCCC2=O)Oc2ccccc21` (configuration not stated), the cell number change was -13.5%. Under setting [1], the AC50 was 0.116 µM [falling, full curve, poor fit].
As to `O=C(O)CC(C(=O)O)N1C(=O)/C(=C/C=C/c2ccco2)SC1=S` (configuration not stated), the cell number change was -19.1%.
With `O=S(=O)(Nc1ccccc1)c1ccc(F)cc1`, the cell number change was -56.4%. Also, the AC50 under setting [2] is 29.1 µM [falling, single point].
As for `Cc1noc2ncnc(N3CCCCC3)c12`, the cell number change came to 19.4%. Further, the AC50 under setting [2] is 0.058 µM [rising, partial curve, poor fit].
With `CCCC1(C(=O)OCC)NC(c2ccc(O)cc2)C2C(=O)N(c3ccc4c(c3)OCCO4)C(=O)C21` (configuration not stated), the AC50 under setting [1] is 20.6 µM [falling, single point].
With `O=C(Nc1nnc(S(=O)(=O)N2CCN(c3ccc(F)cc3)CC2)s1)c1ccccc1`, the cell number change was 15.6%. For the same compound, the AC50 under setting [1] was 29.1 µM [rising, single point].
Regarding `COC(=O)c1ccccc1NC(=O)C1CC(c2ccccc2O)=NO1` (configuration not stated), the cell number change turned out to be 5.81%.
On to `COc1cc(/C=N/Nc2nc(N3CCCCC3)nc(N3CCCCC3)n2)ccc1OC(=O)c1ccco1`, for which the cell number change was 111%. The AC50 under setting [2] was 0.0651 µM [rising, full curve, poor fit]. Also, the AC50 under setting [1] is 9.2 µM [rising, partial curve].
For the compound `COC(=O)c1ccc(S(=O)(=O)N2CCCC2)o1`, the cell number change was -25.5%. The AC50 under setting [1] is 29.1 µM [falling, single point].
Regarding `C#CCOCCOCCOCCNc1nc(N2CCN(C(=O)CCCCCCCCCCNC(=O)[C@H](CO)n3cc(CCCSC)nn3)CC2)nc(N2CCN(C(=O)CCCCCCCCCCNC(=O)[C@@H]([C@H](C)O)n3cc(C)nn3)CC2)n1`, the cell number change is 12.9%. In addition, the AC50 under setting [2] is 6.51 µM [falling, single point]. Also, the AC50 under setting [1] was 4.11 µM [falling, single point].
For the compound `O=C(O)CCc1nn2c3ccccc3n(CCN3CCCCC3)c2nc1=O`, the AC50 is 6.51 µM [falling, single point] under setting [2] and 6.51 µM [falling, single point] under setting [1].
For the compound `COc1cccc(N2CCN(C(=O)c3cccnc3)CC2)c1`, the cell number change is -34.1%. Also, the AC50 under setting [2] was 3.66 µM [falling, full curve]. Also, under setting [1], the AC50 was 4.61 µM [falling, full curve, poor fit].
`CCC(CC)C(=O)Nc1ccc(-c2cn3cccnc3n2)cc1`: the cell number change stood at 10.8%.
Take `CCCOc1ccc(C(=O)CCN2CCN(C(=O)OCC)CC2)cc1`: the cell number change was -77.3%. Besides, the AC50 under setting [1] is 29.1 µM [falling, single point].
Turning to `C=C1Cn2c(nnc2-c2ccc(Cl)cc2)S1`, the cell number change stood at 17.6%.
Take `CCOC(=O)c1c(NC(=O)COC(=O)c2ncc(Cl)c(Cl)c2Cl)sc(C(=O)N(C)C)c1C`: the cell number change is 200%. Moreover, the AC50 under setting [2] is 29.1 µM [rising, partial curve].
Consider `OCCN(Cc1ccccc1)Cc1ccc(Cl)cc1Cl`, for which the cell number change was -28.6%. Further, the AC50 under setting [1] is 23.1 µM [falling, partial curve, poor fit].
`O=c1[nH]c2ccccc2nc1-c1ccc(Cl)cc1`: the cell number change was 14.4%. In addition, the AC50 under setting [1] is 5.17 µM [rising, partial curve, poor fit].
Turning to `c1csc(-c2nc3ccccn3c2NC2CCCCC2)c1`, the cell number change was 59.7%. Further, the AC50 under setting [2] is 2.59 µM [rising, full curve]. Further, the AC50 under setting [1] was 6.51 µM [rising, partial curve, poor fit].
Regarding `Cc1cc(C)cc(OCC(=O)O/N=C(\N)c2cccnc2)c1`, the cell number change was 22.8%. For the same compound, under setting [2], the AC50 is 2.91 µM [rising, full curve, poor fit]. Moreover, under setting [1], the AC50 is 4.11 µM [rising, full curve, poor fit].
Consider `O=Cc1ccc(OCc2ccc3ccccc3c2)cc1`, for which the cell number change is -14.2%. For the same compound, the AC50 under setting [1] is 0.651 µM [falling, single point].
As for `Cc1cc(NS(=O)(=O)c2ccc(NS(=O)(=O)c3cc(C)c(Cl)cc3Cl)cc2)no1`, the cell number change was found to be 3.41%. Besides, the AC50 under setting [2] was 1.46 µM [rising, full curve, poor fit]. In addition, the AC50 under setting [1] is 2.91 µM [rising, single point].
As for `COc1ccc(-c2cc3ccc(OCC(C)=O)cc3oc2=O)cc1OC`, the cell number change was determined as 25.1%. Moreover, the AC50 under setting [1] was 29.1 µM [rising, single point].
In the case of `O=c1c2ccccc2ncn1-c1ccc([N+](=O)[O-])cc1[N+](=O)[O-]`, the cell number change was -20.7%. Besides, the AC50 under setting [1] is 29.1 µM [falling, single point].
Regarding `Cc1ccc2c(c1)CCCN2C(=O)c1ccc2c(c1)OCO2`, the cell number change came out at 67%. The AC50 under setting [2] was 7.31 µM [rising, partial curve]. Under setting [1], the AC50 was 6.51 µM [rising, partial curve].
In the case of `O=C(CNc1ccc2ccccc2c1)N/N=C/c1ccncc1`, the AC50 under setting [1] was 0.731 µM [rising, full curve].
As to `Cc1nc(-c2cccc(NC(=O)c3ccc(-n4cccn4)cc3)c2)cs1`, the cell number change was determined as 11.6%. Moreover, under setting [1], the AC50 is 25.9 µM [falling, partial curve, poor fit].
On to `CC(=O)n1cc(C2C(=O)CC(C)(C)CC2=O)c2ccccc21`, for which the cell number change was found to be 12.8%. The concentration at half-maximal activity (AC50) under setting [1] is 29.1 µM [falling, single point].
Regarding `Cc1ccc(SCC(=O)Nc2ccc(F)cc2[N+](=O)[O-])cc1C`, the cell number change is 13.3%. In addition, the AC50 under setting [1] is 13 µM [rising, partial curve, poor fit].
For `COc1cc(CNCCc2ccc(S(N)(=O)=O)cc2)ccc1OCc1ccc(Cl)cc1`, the cell number change is -12%. For the same compound, under setting [1], the AC50 was 4.61 µM [rising, single point].
Take `CC12CCC(C/C1=N\N=C1\NC(=O)/C(=C\c3ccc(Cl)cc3)S1)C2(C)C` (configuration not stated): the cell number change was -46.3%. Besides, under setting [2], the AC50 was 16.4 µM [falling, single point]. For the same compound, the AC50 under setting [1] was 16.4 µM [falling, single point].
Take `Cc1ccccc1CNC(=O)CN(c1ccccc1Cl)S(C)(=O)=O`: the cell number change was -7.77%. Moreover, the concentration at half-maximal activity (AC50) under setting [1] was 1.03 µM [rising, full curve, poor fit].
As for `O=C(Cc1ccc(Cl)cc1)SCc1ccccc1`, the cell number change is -1.24%. Further, under setting [1], the AC50 was 0.092 µM [rising, full curve, poor fit].
On to `Cc1ccc(S(=O)(=O)N/N=C\c2ccccc2OCc2ccccc2)cc1`, for which the cell number change was determined as 25.3%. For the same compound, the AC50 under setting [1] is 25.9 µM [rising, single point].
Consider `CC(=O)c1cc2c(cc1NC(=O)CN1CCCCC1C)OCO2` (configuration not stated), for which the cell number change is -1.56%. For the same compound, the AC50 under setting [2] was 1.84 µM [falling, partial curve].
As to `Cc1cc(C)cc(N(CC(=O)NC2CCCCC2)C(=O)CCC(=O)Nc2cc(C)ccn2)c1`, the cell number change was determined as 5.17%.
With `O=C(Cn1cc[n+](Cc2ccccc2)c1)c1ccc([N+](=O)[O-])cc1`, the cell number change is -22.2%.
Take `Cc1ccc(-c2nc(SCC(=O)N(C)c3c(N)n(Cc4ccccc4)c(=O)[nH]c3=O)n[nH]2)cc1`: the cell number change was -1.33%. For the same compound, the half-maximal activity concentration (AC50) under setting [1] is 20.6 µM [falling, single point].
Regarding `COC(=O)c1cccc(NC(=O)CN2CCc3ccccc3C2)c1`, the cell number change was 5.74%.
Turning to `O=c1cc(CSc2ccccn2)nc(N2CCN(c3ccccc3)CC2)[nH]1`, the cell number change is 33.1%. In addition, under setting [2], the AC50 was 0.58 µM [falling, partial curve].
With `COc1ccc(COC(=O)c2nc3nc(C)cc(C)n3n2)cc1F`, the cell number change was -9.11%. The AC50 under setting [1] was 13 µM [falling, partial curve, poor fit].
As for `O=C(NCc1ccc(C(F)(F)F)cc1)C1CC(c2c(Cl)cccc2Cl)=NO1` (configuration not stated), the cell number change was -23.6%. Moreover, the AC50 under setting [1] is 0.259 µM [rising, full curve].
Turning to `COc1cccc(/C=N/Nc2ncccc2[N+](=O)[O-])c1OC`, the cell number change was -2.12%. The AC50 under setting [2] is 0.58 µM [falling, full curve, poor fit]. In addition, the AC50 under setting [1] is 0.291 µM [falling, full curve].
Take `Cc1ccccc1C(=O)N1CCC(C(=O)O)CC1`: the cell number change was -14.7%. In addition, under setting [1], the AC50 was 25.9 µM [falling, partial curve].
`COc1cccc(NC(=O)Nc2ccccc2C(N)=O)c1`: the cell number change stood at 0.113%.
